Screening data, single-dose tests

The values are deposited in ChEMBL (CHEMBL3988442, “University of Dundee, Small-Polar-MMV Screening Library” (2021)).

The filed quantity is “Percent Effect” (%). How 0% and 100% were set is not recorded. Most values in the screen are low, and negative values occur. This is an unselected part of the compounds tested.

T. brucei: 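Whole-parasite assay of Trypanosoma brucei over 72 hours; the read-out is not stated. Tested at 30 µM. Direction is inferred from retests: higher values go with stronger inhibition. Values scatter widely below zero; nearly all retest evidence comes from the higher of the two concentrations used. Of about 64,000 compounds tested this way, about 940 (1.5%) reached 50% or more in at least one test.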
Toxoplasma: 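Assay of Toxoplasma gondii numbers, read through their beta-galactosidase reporter with a colour substrate. Concentration: 10 µM. Higher reads as fewer parasites (inferred from which compounds were picked for retests). Size under these conditions: about 67,000 compounds, about 260 of them at 50% or above in at least one test.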

With CN(C)Cc1cc(CC2(NCc3ccc(C#N)cc3)COC2)no1 the screen gave T. brucei: 15.01%; Toxoplasma: 1.724%. For Cc1c(S(=O)(=O)NC2CC2)cc2c(C)cc(=O)n3c2c1CCC3 the result was T. brucei: -23.99%; Toxoplasma: 69.29%. Result for N#Cc1c(F)cccc1N1CCCC(C(=O)Nc2nccs2)C1 (centres undefined) was T. brucei: -11.57%; Toxoplasma: 7.069%. With COCc1nccc(C2CCCN(Cc3ccc(C#N)cc3F)C2)n1 (centres undefined) the screen gave T. brucei: 12.32%; Toxoplasma: 1.23%. Result for CCCc1cc(NC(=O)c2cc(N3CCNC3=O)c(F)cc2F)n[nH]1 was T. brucei: -211%; Toxoplasma: -4.77%. With CCCn1ncc2c(C(=O)NC(C)Cn3cccn3)cc(C3CC3)nc21 (centres undefined) the screen gave T. brucei: 3.052%; Toxoplasma: -1.097%. With O=C(c1ccccc1F)N(CCCO)S(=O)(=O)c1cccs1 the screen gave T. brucei: 1.183%; Toxoplasma: 11.42%. With COc1c(CNCc2ccc(CN3CCOCC3)cc2)c(C)nn1C the screen gave T. brucei: -15.36%; Toxoplasma: -2.781%.

Cc1cc(CN(CC(N)=O)CC(C)C)on1 read T. brucei: -61.59%; Toxoplasma: 0.758%. For CC(=O)N(C)CC(=O)NC1(c2ccc(Cl)c(Cl)c2)CC1 the result was T. brucei: -69.08%; Toxoplasma: 9.441%. Result for CC(C)CC(=O)N1CC(=O)N(Cc2ccco2)CC(O)C1 (centres undefined) was T. brucei: -44.55%; Toxoplasma: -7.962%. CC(C)Cc1cc(C(=O)NCc2nnc[nH]2)[nH]n1 read T. brucei: 9.134%; Toxoplasma: -0.1508%. CC(CO)(CO)NC(=O)C1CCC(=O)N(Cc2ccc(Cl)cc2)C1 (centres undefined) gave T. brucei: -18.29%; Toxoplasma: -3.478%. Result for Cc1cc(C)n(CC2CCCN2C(=O)c2ccc3[nH]cnc3c2)n1 (centres undefined) was T. brucei: -22.32%; Toxoplasma: -18.52%. With CCC(NC(=O)Nc1cc(F)c(OC)c(F)c1)c1noc(C)n1 (centres undefined) the screen gave T. brucei: -28.6%; Toxoplasma: 4.85%. c1ccc(Cc2noc(-c3ccc(NCC4CCCOC4)nc3)n2)cc1 (centres undefined) read T. brucei: -60.89%; Toxoplasma: 24.87%.

Result for O=C(O)C(F)(F)F.[H][C@@]12CCN(S(=O)(=O)CC)CC[C@]1(C(=O)N1CCOCC1)CCN2CC was T. brucei: -6.651%; Toxoplasma: 10.21%. For Cc1cc2n(n1)CC(CNCCc1cnn(C)c1)CN2 (centres undefined) the result was T. brucei: -25.06%; Toxoplasma: -10.44%. With Cc1csc2nc3n(c(=O)c12)CCN(Cc1ccccn1)CC3.Cl the screen gave T. brucei: -40.83%; Toxoplasma: -28.23%. O=C(Nc1ccc2ncsc2c1)N1CCCN([C@H]2COC[C@@H]2O)CC1 read T. brucei: -19.14%; Toxoplasma: -13.48%. Result for CCOc1cc(C)nc(N2CCN(C(=O)CN(C)C3CC3)CC2)n1 was T. brucei: -6.218%; Toxoplasma: 6.222%. Cc1nc2ccccc2n(Cc2nnnn2C2CC2)c1=O read T. brucei: -27.04%; Toxoplasma: 1.582%. With COc1ncccc1CNCc1cnc(N2CCOCC2)nc1 the screen gave T. brucei: -2.545%; Toxoplasma: -18.26%. Result for COc1ccncc1NCc1ccsc1 was T. brucei: -7.728%; Toxoplasma: 6.824%.

With Cc1cc(C)nc(NC2CC(=O)N(C)C2)n1 (centres undefined) the screen gave T. brucei: -65.13%; Toxoplasma: -6.979%.

Once more, the final 3:

| SMILES | T. brucei | Toxoplasma |
|---|---|---|
| `COc1ncccc1CNCc1cnc(N2CCOCC2)nc1` | -2.545 | -18.26 |
| `COc1ccncc1NCc1ccsc1` | -7.728 | 6.824 |
| `Cc1cc(C)nc(NC2CC(=O)N(C)C2)n1` (centres undefined) | -65.13 | -6.979 |